Values of other authors in patent publication EP2292242B1, “A SCUTELLARIN DERIVATIVE, THE PREPARING PROCESS, THE PHARMACEUTICAL COMPOSITION AND THE USE THEREOF” (Kunming Pharmaceutical Corp., priority 2008, dated 2009).
Like-named read-outs stand apart in the source and are kept apart here. At least one read-out could not be matched to a standard name with certainty.

Settings: Eur. J. Pharm. Sci, 2006,29,5,385-393, cited from earlier work

Q: What does the source list for hydroxyacetylamide ester of scutellarin?
A: solubility increased compared with scutellarin (in buffer solution (pH=4.2)): ~10 times; solubility increased compared with scutellarin (in water): ~35 times
